Laboratory results: paper PMC9054788
No constants are given. Whether binding was seen depends on the method and setting. In cells and extracts the contact can be indirect. Here binding means that the protein was enriched with, or labelled near, the bait; the list need not be complete.

T1: Midkine (UniProt P21741)
T1 sequence: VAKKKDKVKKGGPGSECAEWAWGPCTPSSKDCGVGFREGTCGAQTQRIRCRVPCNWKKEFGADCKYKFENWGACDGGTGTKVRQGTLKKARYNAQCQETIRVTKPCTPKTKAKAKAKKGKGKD

B1: UBE2O (protein, UniProt Q9C0C9 1-1292)
chain: MADPAAPTPAAPAPAQAPAPAPEAVPAPAAAPVPAPAPASDSASGPSSDSGPEAGSQRLLFSHDLVSGRYRGSVHFGLVRLIHGEDSDSEGEEEGRGSSGCSEAGGAGHEEGRASPLRRGYVRVQWYPEGVKQHVKETKLKLEDRSVVPRDVVRHMRSTDSQCGTVIDVNIDCAVKLIGTNCIIYPVNSKDLQHIWPFMYGDYIAYDCWLGKVYDLKNQIILKLSNGARCSMNTEDGAKLYDVCPHVSDSGLFFDDSYGFYPGQVLIGPAKIFSSVQWLSGVKPVLSTKSKFRVVVEEVQVVELKVTWITKSFCPGGTDSVSPPPSVITQENLGRVKRLGCFDHAQRQLGERCLYVFPAKVEPAKIAWECPEKNCAQGEGSMAKKVKRLLKKQVVRIMSCSPDTQCSRDHSMEDPDKKGESKTKSEAESASPEETPDGSASPVEMQDEGAEEPHEAGEQLPPFLLKEGRDDRLHSAEQDADDEAADDTDDTSSVTSSASSTTSSQSGSGTSRKKSIPLSIKNLKRKHKRKKNKITRDFKPGDRVAVEVVTTMTSADVMWQDGSVECNIRSNDLFPVHHLDNNEFCPGDFVVDKRVQSCPDPAVYGVVQSGDHIGRTCMVKWFKLRPSGDDVELIGEEEDVSVYDIADHPDFRFRTTDIVIRIGNTEDGAPHKEDEPSVGQVARVDVSSKVEVVWADNSKTIILPQHLYNIESEIEESDYDSVEGSTSGASSDEWEDDSDSWETDNGLVEDEHPKIEEPPIPPLEQPVAPEDKGVVISEEAATAAVQGAVAMAAPMAGLMEKAGKDGPPKSFRELKEAIKILESLKNMTVEQLLTGSPTSPTVEPEKPTREKKFLDDIKKLQENLKKTLDNVAIVEEEKMEAVPDVERKEDKPEGQSPVKAEWPSETPVLCQQCGGKPGVTFTSAKGEVFSVLEFAPSNHSFKKIEFQPPEAKKFFSTVRKEMALLATSLPEGIMVKTFEDRMDLFSALIKGPTRTPYEDGLYLFDIQLPNIYPAVPPHFCYLSQCSGRLNPNLYDNGKVCVSLLGTWIGKGTERWTSKSSLLQVLISIQGLILVNEPYYNEAGFDSDRGLQEGYENSRCYNEMALIRVVQSMTQLVRRPPEVFEQEIRQHFSTGGWRLVNRIESWLETHALLEKAQALPNGVPKASSSPEPPAVAELSDSGQQEPEDGGPAPGEASQGSDSEGGAQGLASASRDHTDQTSETAPDASVPPSVKPKKRRKSYRSFLPEKSGYPDIGFPLFPLSKGFIKSIRGVLTQFRAALLEAGMPECTEDK

Target: T1, Midkine
Test: affinity purification with mass spectrometry; tandem affinity purification of MDK-associated protein complexes from HEK293T cells (legend: HEK293A), MDK as bait

Molecule | binding
MARK (human (endogenous in HEK293T)) | binds
B1 | binds
